Experimental data reported in the supplement of paper PMC10849652.
Some of the results follow.

The chains behind the UniProt entries cited, without tags or fusion partners. Where a name states a change or a piece, a line headed by the entry shows the natural chain unless it says otherwise.
UniProt Q9NTX5: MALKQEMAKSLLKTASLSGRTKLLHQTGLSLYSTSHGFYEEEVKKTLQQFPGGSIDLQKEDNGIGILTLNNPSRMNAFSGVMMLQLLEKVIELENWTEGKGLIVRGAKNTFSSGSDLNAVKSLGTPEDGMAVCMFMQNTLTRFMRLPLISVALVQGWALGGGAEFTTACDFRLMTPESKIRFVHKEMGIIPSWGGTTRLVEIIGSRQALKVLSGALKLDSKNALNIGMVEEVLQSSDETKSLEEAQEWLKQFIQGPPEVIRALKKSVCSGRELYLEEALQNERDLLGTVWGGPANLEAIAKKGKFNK
UniProt P23919: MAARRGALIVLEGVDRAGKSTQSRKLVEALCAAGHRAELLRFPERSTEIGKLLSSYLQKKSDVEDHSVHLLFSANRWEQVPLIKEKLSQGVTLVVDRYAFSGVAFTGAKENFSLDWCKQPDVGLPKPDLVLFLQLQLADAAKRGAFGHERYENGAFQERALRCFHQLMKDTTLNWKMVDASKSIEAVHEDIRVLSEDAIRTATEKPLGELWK
UniProt Q08426: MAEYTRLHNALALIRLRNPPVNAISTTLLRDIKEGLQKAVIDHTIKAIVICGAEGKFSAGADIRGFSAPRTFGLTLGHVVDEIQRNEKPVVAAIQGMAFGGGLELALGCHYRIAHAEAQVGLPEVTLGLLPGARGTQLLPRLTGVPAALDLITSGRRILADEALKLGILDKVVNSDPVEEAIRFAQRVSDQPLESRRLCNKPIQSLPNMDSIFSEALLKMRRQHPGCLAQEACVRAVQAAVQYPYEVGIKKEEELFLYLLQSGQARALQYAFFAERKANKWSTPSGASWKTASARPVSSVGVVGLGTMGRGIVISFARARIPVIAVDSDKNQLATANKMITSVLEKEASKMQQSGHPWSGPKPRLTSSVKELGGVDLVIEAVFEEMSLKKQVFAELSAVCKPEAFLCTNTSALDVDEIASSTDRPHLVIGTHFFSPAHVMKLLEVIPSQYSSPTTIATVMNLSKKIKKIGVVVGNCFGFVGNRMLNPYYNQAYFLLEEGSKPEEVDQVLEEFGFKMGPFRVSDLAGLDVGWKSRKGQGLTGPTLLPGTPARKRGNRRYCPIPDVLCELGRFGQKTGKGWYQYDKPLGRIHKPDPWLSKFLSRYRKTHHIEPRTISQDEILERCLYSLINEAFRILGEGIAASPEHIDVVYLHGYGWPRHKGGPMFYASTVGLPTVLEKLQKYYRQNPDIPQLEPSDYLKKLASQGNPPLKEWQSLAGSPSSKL
UniProt O00418: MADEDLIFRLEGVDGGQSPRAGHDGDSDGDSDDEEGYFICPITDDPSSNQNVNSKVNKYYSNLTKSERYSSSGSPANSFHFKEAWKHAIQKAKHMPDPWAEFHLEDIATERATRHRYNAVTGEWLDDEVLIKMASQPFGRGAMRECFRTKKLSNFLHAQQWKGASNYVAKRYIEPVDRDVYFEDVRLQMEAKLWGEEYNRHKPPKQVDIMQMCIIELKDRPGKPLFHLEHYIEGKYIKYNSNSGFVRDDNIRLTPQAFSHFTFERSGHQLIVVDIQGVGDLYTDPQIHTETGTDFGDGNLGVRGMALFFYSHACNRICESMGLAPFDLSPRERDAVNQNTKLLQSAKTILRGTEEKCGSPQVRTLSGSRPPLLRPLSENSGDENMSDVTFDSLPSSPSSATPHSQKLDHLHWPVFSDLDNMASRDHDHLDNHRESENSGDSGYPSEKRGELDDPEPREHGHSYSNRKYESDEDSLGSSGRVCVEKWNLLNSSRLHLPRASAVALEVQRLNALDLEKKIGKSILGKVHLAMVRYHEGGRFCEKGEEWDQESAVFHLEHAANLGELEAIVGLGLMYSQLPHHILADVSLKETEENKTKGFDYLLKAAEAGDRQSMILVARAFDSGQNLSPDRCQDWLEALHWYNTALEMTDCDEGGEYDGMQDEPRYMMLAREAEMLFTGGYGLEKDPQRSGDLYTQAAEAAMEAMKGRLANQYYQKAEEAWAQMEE
UniProt P51452: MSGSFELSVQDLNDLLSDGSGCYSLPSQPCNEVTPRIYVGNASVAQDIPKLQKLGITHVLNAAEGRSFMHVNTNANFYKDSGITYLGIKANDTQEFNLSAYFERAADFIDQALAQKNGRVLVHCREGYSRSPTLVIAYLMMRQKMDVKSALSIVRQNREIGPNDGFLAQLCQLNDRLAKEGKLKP
UniProt Q9H9B1: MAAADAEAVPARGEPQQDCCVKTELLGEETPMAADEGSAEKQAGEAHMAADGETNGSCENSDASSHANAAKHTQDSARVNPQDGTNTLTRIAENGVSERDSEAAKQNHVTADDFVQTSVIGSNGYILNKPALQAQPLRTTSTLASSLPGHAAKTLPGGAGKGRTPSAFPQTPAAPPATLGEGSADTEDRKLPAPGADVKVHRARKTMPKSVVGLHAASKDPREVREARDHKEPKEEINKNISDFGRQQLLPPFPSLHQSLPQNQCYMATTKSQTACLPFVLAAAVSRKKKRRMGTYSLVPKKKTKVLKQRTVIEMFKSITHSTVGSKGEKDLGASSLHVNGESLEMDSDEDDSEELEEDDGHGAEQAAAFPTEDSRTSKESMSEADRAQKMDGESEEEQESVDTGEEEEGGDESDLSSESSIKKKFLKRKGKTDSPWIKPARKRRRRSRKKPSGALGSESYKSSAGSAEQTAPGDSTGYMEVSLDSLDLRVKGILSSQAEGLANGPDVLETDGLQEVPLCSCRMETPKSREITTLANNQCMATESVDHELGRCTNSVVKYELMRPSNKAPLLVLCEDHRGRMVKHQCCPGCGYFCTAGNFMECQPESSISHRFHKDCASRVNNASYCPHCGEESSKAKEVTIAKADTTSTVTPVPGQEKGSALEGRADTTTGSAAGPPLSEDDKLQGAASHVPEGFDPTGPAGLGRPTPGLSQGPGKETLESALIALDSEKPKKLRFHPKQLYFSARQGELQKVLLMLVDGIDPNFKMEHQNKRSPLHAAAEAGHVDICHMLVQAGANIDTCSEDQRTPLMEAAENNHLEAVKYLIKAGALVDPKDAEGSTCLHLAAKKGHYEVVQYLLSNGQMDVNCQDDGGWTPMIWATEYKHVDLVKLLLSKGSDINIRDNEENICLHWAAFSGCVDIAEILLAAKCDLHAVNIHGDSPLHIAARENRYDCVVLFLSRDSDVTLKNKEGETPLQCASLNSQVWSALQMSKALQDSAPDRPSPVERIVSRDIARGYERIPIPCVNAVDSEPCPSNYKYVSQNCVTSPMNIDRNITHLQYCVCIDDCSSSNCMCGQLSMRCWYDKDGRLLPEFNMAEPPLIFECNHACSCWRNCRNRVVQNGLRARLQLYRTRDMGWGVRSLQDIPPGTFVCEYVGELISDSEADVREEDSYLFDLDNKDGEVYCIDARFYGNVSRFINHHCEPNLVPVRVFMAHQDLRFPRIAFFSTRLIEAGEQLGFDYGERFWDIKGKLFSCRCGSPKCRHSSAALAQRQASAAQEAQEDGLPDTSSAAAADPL
UniProt Q6P2E9: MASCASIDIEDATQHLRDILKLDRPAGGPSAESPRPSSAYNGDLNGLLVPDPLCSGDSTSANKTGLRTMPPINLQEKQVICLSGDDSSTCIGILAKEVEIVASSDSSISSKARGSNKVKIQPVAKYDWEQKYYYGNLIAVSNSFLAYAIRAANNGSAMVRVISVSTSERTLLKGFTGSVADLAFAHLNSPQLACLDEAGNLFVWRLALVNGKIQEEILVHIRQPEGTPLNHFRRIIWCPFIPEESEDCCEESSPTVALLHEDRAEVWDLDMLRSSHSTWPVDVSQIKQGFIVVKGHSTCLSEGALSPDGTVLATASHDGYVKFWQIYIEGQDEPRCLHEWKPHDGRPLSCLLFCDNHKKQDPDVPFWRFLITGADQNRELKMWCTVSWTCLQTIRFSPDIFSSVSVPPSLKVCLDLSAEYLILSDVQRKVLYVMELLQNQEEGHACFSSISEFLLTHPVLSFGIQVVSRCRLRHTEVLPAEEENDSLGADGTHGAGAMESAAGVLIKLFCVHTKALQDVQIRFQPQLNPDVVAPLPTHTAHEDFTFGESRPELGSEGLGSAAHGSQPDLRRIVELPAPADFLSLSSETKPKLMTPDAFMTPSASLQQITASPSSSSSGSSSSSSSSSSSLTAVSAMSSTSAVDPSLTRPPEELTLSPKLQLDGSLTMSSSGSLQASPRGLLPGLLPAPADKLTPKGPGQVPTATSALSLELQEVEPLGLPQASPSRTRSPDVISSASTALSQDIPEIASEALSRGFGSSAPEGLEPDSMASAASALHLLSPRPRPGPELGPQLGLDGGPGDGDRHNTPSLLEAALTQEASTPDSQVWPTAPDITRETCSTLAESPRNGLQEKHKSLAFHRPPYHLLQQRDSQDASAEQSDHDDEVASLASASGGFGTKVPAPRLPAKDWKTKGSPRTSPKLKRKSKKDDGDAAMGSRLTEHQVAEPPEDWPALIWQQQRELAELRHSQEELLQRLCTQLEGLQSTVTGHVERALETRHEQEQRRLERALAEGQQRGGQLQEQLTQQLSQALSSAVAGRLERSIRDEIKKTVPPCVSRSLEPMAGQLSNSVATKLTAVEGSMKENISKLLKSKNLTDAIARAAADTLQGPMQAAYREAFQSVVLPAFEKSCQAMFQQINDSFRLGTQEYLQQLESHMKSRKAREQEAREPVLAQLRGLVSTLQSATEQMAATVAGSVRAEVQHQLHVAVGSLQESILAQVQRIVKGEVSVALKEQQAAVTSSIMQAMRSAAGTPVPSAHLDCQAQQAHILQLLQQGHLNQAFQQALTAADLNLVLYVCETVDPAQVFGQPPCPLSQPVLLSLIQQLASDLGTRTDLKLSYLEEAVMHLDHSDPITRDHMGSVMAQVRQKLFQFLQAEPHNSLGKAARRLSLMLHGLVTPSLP
UniProt P26641, whole entry, looked up: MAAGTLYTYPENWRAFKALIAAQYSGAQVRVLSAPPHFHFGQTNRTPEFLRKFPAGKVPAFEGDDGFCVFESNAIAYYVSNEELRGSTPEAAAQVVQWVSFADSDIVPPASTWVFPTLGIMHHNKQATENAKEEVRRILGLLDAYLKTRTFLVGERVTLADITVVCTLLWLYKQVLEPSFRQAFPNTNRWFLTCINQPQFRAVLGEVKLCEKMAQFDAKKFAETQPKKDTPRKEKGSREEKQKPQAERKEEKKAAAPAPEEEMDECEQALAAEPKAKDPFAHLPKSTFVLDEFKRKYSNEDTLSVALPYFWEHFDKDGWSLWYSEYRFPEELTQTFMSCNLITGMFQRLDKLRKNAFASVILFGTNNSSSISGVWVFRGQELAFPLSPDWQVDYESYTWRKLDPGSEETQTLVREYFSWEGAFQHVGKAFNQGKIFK
UniProt Q96FN9: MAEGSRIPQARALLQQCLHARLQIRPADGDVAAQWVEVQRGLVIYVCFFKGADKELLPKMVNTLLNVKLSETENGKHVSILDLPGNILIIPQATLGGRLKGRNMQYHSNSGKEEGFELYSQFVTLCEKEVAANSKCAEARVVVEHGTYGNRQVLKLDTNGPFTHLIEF
UniProt O60869: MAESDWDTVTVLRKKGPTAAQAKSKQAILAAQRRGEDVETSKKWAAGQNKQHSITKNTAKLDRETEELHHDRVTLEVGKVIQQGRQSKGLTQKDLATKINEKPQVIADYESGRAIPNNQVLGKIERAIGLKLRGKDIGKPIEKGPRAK
UniProt Q02487, whole entry, looked up: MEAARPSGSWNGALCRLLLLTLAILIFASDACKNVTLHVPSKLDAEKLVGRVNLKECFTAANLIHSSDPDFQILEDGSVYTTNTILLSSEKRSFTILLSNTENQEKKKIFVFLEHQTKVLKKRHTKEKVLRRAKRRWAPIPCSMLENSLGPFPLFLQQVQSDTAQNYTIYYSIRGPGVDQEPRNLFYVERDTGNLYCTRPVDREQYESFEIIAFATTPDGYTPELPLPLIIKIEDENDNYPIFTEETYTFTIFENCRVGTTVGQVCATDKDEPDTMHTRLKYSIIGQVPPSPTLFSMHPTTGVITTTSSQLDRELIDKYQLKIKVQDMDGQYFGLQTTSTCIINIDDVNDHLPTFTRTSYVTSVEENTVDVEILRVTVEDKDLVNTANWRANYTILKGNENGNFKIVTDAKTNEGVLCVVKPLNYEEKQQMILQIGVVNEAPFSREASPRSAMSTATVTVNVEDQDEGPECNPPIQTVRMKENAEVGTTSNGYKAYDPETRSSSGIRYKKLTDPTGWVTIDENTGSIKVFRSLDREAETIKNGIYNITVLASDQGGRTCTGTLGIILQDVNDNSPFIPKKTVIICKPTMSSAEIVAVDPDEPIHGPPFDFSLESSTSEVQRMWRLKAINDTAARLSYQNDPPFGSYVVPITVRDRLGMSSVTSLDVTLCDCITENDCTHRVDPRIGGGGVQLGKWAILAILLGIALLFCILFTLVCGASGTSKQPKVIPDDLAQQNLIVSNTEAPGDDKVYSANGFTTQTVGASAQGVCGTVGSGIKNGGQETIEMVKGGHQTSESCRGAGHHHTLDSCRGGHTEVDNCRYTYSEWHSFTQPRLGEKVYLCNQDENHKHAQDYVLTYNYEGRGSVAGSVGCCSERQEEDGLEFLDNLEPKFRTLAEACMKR

compound: Cc1cc(Nc2cc(N3CCN(C)CC3)nc(Sc3ccc(NC(=O)C4CC4)cc3)n2)n[nH]1 [tozasertib]; assay: log2 fold change, soluble protein after heating vs DMSO (PISA); higher = thermal stabilisation; K562 lysate, 10 uM; active = over 0.2 and 3.5 SD of the protein, either way, in both replicates (recomputed)
Outline: (§1)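 Following dounce homogenisation of K562 pellets in PBS pH 7.4 with 1 mM MgCl2, crude extract at 1 mg/mL protein was incubated for 30 min with 10 μM compound. Aliquots were then heated for 3 min over 48°C-58°C and pooled, NP-40 was added to 0.5% at 4°C, and soluble protein was recovered as the supernatant at 21,000xg for 90 min. Channel-sum-equalised TMTpro 16plex LC-MS/MS quantified this protein. Each value, from duplicates, is a log-two fold change in thermal stability relative to solvent controls.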

Target | log2 fold change
DVL3 (UniProt Q92997) | inactive: 0.042
DYNC2H1 isoform 2 (UniProt Q8NCM8) | inactive: -0.041
ECHDC1 (UniProt Q9NTX5) | inactive: -0.006
EDEM2 (UniProt Q9BV94) | inactive: -0.078
EEF2KMT (UniProt Q96G04) | inactive: 0.063
DTYMK (UniProt P23919) | inactive: 0.01
EHHADH (UniProt Q08426) | inactive: 0.045
EEF2K (UniProt O00418) | inactive: 0.04
EED, A0A5F9ZI63 | inactive: -0.01
EID1 (UniProt Q9Y6B2) | inactive: -0.043
EEA1 (UniProt Q15075) | inactive: -0.023
EFCAB2 isoform 2 (UniProt Q5VUJ9) | inactive: 0.104
EHBP1 isoform 2 (UniProt Q8NDI1) | inactive: 0.027
EFNB1 (UniProt P98172) | inactive: 0.047
DUSP3 (UniProt P51452) | inactive: 0.028
EHMT1 (UniProt Q9H9B1) | inactive: 0.031
DPY19L4 (UniProt Q7Z388) | inactive: -0.055
EDC4 (UniProt Q6P2E9) | inactive: -0.016
EEF1G isoform 2 (UniProt P26641) | inactive: -0.012
DTD2 (UniProt Q96FN9) | inactive: 0.157
EDF1 (UniProt O60869) | inactive: -0.017
ECM1 isoform 4 (UniProt Q16610) | inactive: 0.074
DYSF isoform 13 (UniProt O75923) | inactive: -0.113
DSC2 (UniProt Q02487) | inactive: 0.188
DYNC1I2 isoform 2 (UniProt Q13409) | inactive: 0.001
DTX3L (UniProt Q8TDB6) | inactive: -0.015
EFR3A (UniProt Q14156) | inactive: 0.073
DPY30 (UniProt Q9C005) | inactive: 0.087
EHD4 (UniProt Q9H223) | inactive: -0.008

compound: Cc1ccc(-n2nc(C(C)(C)C)cc2NC(=O)Nc2ccc(OCCN3CCOCC3)c3ccccc23)cc1 [doramapimod]; assay: as above
Outline: as §1

Target | log2 fold change
DVL3 (UniProt Q92997) | inactive: 0.175
ECHDC1 (UniProt Q9NTX5) | inactive: -0.035
EDEM2 (UniProt Q9BV94) | inactive: -0.001
EEF2KMT (UniProt Q96G04) | inactive: 0.124
DTYMK (UniProt P23919) | inactive: 0.045
EHHADH (UniProt Q08426) | inactive: 0.048
EEF2K (UniProt O00418) | inactive: 0.006
DTL (UniProt Q9NZJ0) | inactive: 0.064
EED, A0A5F9ZI63 | inactive: 0.006
EEA1 (UniProt Q15075) | inactive: 0
EFCAB2 isoform 2 (UniProt Q5VUJ9) | inactive: 0.076
EHBP1 isoform 2 (UniProt Q8NDI1) | inactive: 0.031
EFNB1 (UniProt P98172) | inactive: 0.054
DUSP3 (UniProt P51452) | inactive: -0.003
EHMT1 (UniProt Q9H9B1) | inactive: 0.005
DPY19L4 (UniProt Q7Z388) | inactive: 0.004
EDC4 (UniProt Q6P2E9) | inactive: -0.014
EEF1G isoform 2 (UniProt P26641) | inactive: 0.014
DTD2 (UniProt Q96FN9) | inactive: -0.022
EDF1 (UniProt O60869) | inactive: -0.063
ECM1 isoform 4 (UniProt Q16610) | inactive: -0.049
DYSF isoform 13 (UniProt O75923) | inactive: 0.094
DSC2 (UniProt Q02487) | inactive: 0.207
DYNC1I2 isoform 2 (UniProt Q13409) | inactive: -0.011
DTX3L (UniProt Q8TDB6) | inactive: -0.052
DPY30 (UniProt Q9C005) | inactive: -0.005
E4F1 (UniProt Q66K89) | inactive: -0.094
EHD4 (UniProt Q9H223) | inactive: 0.023

compound: Cc1ccc(NC(=O)c2ccc(CN3CC[C@H](N(C)C)C3)c(C(F)(F)F)c2)cc1Nc1nccc(-c2cncnc2)n1 [bafetinib]; assay: as above
Outline: as §1

Target | log2 fold change
DVL3 (UniProt Q92997) | inactive: 0.047
DYNC2H1 isoform 2 (UniProt Q8NCM8) | inactive: -0.302
ECHDC1 (UniProt Q9NTX5) | inactive: 0
DTYMK (UniProt P23919) | inactive: 0.007
DUSP22 isoform 2 (UniProt Q9NRW4) | inactive: 0.018
EHHADH (UniProt Q08426) | inactive: 0.06
EEF2K (UniProt O00418) | inactive: -0.086
DTL (UniProt Q9NZJ0) | inactive: -0.099
EED, A0A5F9ZI63 | inactive: 0.033
EEA1 (UniProt Q15075) | inactive: 0.008
EHBP1 isoform 2 (UniProt Q8NDI1) | inactive: -0.105
EFNB1 (UniProt P98172) | inactive: -0.093
DUSP3 (UniProt P51452) | inactive: -0.048
EHMT1 (UniProt Q9H9B1) | inactive: -0.037
DPY19L4 (UniProt Q7Z388) | inactive: -0.052
EDC4 (UniProt Q6P2E9) | inactive: -0.043
EEF1G isoform 2 (UniProt P26641) | inactive: 0.041
DTD2 (UniProt Q96FN9) | inactive: -0.413
EDF1 (UniProt O60869) | inactive: -0.02
ECM1 isoform 4 (UniProt Q16610) | inactive: 0.047
DYSF isoform 13 (UniProt O75923) | inactive: -0.295
DSC2 (UniProt Q02487) | inactive: 0.01
DYNC1I2 isoform 2 (UniProt Q13409) | inactive: -0.041
DTX3L (UniProt Q8TDB6) | inactive: -0.228
EFR3A (UniProt Q14156) | inactive: -0.106
E4F1 (UniProt Q66K89) | inactive: 0.012
EHD4 (UniProt Q9H223) | inactive: -0.031
